Publication PMC10531384
These are yes or no findings as the source states them, for the method shown. Binding seen in cells or lysates may run through a third protein. Some results given as binding are weak or reduced against the parent protein; the word gives no strength.

Sequences of proteins named here, by UniProt entry; tags and fusion partners are left off. A change or cut given only in a name is not applied to a line headed by its entry.
UniProt P21333: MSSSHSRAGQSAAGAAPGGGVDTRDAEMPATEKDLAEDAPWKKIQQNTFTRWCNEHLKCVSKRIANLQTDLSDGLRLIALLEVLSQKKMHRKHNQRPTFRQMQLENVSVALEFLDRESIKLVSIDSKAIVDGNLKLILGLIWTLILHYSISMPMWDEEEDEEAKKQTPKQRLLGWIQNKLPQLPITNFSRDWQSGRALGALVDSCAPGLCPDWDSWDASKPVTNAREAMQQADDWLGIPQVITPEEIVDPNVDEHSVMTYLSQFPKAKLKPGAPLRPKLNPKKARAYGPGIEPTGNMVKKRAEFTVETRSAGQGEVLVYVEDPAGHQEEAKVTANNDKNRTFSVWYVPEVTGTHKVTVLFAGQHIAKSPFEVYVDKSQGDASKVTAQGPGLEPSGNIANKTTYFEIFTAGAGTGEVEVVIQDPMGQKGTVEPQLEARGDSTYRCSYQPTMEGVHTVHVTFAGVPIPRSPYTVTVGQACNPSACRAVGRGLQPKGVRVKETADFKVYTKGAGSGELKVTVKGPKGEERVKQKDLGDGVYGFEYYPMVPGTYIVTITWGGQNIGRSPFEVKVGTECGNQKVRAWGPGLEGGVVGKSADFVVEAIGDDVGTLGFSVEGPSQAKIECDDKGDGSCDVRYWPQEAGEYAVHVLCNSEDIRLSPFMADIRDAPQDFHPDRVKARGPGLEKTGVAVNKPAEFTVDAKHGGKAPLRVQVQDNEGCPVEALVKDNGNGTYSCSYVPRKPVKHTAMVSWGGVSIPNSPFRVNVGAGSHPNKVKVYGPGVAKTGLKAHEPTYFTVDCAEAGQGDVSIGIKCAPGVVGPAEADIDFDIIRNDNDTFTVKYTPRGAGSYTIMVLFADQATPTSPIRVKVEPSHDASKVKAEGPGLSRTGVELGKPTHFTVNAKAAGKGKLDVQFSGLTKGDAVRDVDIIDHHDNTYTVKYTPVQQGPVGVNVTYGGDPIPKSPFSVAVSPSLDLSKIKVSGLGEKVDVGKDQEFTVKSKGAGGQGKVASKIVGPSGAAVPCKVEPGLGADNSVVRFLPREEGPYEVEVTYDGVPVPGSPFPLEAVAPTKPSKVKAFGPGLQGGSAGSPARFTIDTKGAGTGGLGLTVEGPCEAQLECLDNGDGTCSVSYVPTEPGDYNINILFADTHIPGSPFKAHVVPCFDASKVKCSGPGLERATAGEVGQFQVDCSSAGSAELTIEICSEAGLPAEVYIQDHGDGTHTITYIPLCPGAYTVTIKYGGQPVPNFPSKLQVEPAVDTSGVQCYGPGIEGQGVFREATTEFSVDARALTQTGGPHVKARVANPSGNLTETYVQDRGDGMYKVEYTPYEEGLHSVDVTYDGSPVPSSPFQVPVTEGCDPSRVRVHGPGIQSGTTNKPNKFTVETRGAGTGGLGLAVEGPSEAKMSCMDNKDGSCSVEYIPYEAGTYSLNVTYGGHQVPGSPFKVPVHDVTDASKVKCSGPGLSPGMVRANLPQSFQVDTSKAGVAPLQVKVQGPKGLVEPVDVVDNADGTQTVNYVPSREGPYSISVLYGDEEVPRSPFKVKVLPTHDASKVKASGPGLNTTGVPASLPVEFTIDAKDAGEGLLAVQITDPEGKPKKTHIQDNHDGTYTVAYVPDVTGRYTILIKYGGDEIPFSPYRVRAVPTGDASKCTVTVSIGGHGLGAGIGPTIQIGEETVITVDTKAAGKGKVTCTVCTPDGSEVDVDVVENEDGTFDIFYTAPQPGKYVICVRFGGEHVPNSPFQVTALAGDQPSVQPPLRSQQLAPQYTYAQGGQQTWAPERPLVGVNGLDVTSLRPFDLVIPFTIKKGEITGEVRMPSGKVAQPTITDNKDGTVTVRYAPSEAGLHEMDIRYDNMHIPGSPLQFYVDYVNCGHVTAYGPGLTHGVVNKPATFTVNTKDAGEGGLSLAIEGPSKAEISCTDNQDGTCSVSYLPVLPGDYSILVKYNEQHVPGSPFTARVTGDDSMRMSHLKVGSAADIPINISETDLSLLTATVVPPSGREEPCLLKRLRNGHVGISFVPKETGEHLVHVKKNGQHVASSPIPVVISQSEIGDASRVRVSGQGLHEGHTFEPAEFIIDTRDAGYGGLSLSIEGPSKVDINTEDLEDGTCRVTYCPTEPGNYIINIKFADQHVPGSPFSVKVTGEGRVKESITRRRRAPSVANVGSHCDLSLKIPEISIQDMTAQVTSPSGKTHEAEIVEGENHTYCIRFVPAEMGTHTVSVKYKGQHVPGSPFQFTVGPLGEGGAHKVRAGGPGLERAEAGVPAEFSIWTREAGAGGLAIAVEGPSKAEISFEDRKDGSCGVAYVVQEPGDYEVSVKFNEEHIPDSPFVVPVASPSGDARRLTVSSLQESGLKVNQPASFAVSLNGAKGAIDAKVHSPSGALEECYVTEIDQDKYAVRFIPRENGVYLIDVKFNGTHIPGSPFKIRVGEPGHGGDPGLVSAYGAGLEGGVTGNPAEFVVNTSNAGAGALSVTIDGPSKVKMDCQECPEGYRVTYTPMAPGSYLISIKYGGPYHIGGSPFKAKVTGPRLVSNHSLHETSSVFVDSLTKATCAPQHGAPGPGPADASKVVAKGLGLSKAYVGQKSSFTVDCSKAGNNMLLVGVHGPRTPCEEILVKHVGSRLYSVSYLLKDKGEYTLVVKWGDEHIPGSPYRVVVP
UniProt Q8BTM8: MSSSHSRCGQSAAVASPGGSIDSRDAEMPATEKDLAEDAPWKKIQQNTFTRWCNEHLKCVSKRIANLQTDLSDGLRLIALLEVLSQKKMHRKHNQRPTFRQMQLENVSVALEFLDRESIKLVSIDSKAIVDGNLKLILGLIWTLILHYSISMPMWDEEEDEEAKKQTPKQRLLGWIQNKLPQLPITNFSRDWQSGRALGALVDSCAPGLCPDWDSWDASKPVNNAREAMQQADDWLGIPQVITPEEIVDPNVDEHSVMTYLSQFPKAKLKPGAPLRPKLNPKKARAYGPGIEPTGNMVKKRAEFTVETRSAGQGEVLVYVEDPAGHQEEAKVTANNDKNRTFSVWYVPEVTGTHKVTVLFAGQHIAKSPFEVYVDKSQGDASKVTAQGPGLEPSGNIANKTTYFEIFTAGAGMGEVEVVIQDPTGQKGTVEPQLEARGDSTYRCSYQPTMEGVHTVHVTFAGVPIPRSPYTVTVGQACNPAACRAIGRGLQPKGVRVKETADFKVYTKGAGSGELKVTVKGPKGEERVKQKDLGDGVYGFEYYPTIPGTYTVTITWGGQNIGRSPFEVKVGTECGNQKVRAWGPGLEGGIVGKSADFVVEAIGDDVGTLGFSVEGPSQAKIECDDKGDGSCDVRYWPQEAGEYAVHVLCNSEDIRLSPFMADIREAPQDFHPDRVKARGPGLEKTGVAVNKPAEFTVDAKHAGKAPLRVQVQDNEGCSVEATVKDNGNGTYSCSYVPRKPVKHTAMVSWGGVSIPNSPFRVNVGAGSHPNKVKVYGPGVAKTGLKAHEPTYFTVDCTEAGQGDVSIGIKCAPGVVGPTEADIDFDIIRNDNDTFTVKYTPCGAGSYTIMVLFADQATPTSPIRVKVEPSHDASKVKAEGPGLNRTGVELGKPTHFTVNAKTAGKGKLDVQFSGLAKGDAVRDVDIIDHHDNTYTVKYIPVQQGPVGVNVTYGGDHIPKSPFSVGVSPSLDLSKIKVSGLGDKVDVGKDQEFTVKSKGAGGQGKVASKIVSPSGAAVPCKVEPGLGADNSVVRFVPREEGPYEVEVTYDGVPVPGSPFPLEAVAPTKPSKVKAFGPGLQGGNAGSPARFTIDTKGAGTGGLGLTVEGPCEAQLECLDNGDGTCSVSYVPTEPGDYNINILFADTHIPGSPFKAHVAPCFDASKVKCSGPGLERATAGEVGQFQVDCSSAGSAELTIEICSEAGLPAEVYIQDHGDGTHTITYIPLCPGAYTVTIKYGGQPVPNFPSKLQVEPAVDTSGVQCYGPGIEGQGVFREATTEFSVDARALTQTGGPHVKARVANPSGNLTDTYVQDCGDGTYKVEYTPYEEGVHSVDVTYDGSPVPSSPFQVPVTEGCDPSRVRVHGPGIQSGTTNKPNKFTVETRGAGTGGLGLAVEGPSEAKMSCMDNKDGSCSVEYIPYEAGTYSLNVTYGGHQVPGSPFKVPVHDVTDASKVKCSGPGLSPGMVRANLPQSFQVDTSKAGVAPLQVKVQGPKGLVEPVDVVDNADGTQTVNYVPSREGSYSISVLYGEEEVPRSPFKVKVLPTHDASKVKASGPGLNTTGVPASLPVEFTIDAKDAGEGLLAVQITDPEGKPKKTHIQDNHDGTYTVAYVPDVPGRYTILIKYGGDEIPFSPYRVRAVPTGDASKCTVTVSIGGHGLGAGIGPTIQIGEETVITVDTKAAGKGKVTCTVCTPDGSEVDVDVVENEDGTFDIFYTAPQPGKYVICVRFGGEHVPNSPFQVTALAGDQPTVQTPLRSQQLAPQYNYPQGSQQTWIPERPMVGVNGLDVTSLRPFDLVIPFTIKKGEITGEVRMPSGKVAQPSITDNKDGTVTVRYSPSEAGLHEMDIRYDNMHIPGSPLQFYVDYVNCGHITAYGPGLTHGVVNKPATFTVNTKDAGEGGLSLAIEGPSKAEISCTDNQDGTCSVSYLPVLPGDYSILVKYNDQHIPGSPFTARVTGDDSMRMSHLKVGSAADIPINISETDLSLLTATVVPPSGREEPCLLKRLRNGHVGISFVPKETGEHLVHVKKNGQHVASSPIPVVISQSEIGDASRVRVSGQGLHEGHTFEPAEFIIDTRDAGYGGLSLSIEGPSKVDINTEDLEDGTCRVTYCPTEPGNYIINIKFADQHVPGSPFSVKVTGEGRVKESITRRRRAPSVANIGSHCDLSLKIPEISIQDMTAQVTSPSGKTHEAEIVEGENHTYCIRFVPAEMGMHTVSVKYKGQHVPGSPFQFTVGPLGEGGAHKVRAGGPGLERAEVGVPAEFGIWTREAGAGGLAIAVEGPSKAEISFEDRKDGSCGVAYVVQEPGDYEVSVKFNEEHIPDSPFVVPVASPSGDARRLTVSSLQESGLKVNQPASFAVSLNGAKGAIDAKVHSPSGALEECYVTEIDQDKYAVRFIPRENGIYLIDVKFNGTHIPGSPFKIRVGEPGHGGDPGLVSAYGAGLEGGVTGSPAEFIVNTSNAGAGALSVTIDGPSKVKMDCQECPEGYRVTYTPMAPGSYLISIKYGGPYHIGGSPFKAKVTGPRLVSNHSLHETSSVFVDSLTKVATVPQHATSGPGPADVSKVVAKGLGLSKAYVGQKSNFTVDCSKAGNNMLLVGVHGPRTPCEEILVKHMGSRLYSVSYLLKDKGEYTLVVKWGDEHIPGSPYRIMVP
UniProt P61073: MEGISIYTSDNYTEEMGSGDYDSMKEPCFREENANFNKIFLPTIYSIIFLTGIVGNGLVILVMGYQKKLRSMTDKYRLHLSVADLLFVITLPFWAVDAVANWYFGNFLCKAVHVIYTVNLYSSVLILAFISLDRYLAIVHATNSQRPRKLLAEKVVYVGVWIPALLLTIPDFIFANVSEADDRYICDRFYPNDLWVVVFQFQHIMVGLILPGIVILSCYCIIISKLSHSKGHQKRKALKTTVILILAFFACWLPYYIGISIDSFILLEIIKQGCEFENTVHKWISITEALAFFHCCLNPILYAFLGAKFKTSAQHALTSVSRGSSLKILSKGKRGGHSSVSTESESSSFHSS
UniProt O60603: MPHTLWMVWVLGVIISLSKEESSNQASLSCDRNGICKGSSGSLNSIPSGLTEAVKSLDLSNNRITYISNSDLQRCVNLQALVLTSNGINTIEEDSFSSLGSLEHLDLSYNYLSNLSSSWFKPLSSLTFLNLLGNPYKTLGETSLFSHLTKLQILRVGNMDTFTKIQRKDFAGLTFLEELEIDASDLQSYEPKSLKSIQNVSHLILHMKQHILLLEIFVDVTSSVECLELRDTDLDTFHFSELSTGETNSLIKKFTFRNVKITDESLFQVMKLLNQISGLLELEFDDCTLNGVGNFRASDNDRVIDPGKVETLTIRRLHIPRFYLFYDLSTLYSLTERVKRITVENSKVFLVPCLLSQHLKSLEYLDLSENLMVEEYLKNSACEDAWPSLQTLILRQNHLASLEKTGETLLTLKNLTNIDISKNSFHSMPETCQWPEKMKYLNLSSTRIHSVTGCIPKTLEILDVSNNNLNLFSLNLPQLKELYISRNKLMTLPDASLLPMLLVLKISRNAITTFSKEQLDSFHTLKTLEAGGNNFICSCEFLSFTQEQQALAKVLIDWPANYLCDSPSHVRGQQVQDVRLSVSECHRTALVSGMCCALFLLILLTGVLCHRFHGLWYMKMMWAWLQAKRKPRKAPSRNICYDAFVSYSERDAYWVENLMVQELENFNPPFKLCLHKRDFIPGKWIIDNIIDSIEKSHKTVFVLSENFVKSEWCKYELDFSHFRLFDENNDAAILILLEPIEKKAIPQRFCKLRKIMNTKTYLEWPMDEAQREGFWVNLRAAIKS

Columns and labels:
[1] = molecular target: filamin A, human brain (human (endogenous in postmortem frontal cortex)) (UniProt P21333); assay: co-IP; synaptosomes from frontal cortical slices of 11 matched AD and control subjects, slices incubated with K-R or 1 nM simufilam; anti-FLNA (SC-7565) on protein A/G agarose, 16 h 4 °C; blots for CCR5, CD4 and CXCR4
[2] = molecular target: filamin A, mouse brain (mouse (endogenous in brain)) (UniProt Q8BTM8); assay: co-IP; synaptosomes from brains of wildtype and 3xTg AD mice (6 or 10 months) after 2 months of water or oral simufilam 22 mg/kg/d; anti-FLNA (SC-17749) on protein A/G agarose, 16 h 4 °C; blots for CCR5, CD4 and CXCR4
[3] = molecular target: filamin A, human brain (human (endogenous in postmortem frontal cortex)) (UniProt P21333); assay: co-IP; synaptosomes from frontal cortical slices of 3 non-demented control subjects, slices incubated with K-R, 100 nM Aβ42, 10 μg/mL LTA-SA or 1 μg/mL PGN-SA with or without 1 or 10 nM simufilam (37 °C, 30 min); anti-FLNA (SC-7565) on protein A/G agarose, 16 h 4 °C, 25 mM HEPES pH 7.5, 200 mM NaCl, 1 mM EDTA; blot for TLR2

| Substance | binding [1] | binding [2] | also measured |
| --- | --- | --- | --- |
| C-C chemokine receptor type 5, human brain (from UniProt P51681 1-352) | binds | – | – |
| C-C chemokine receptor type 5, mouse brain (from UniProt P51682 1-354) | – | binds | – |
| C-X-C chemokine receptor type 4, human brain (from UniProt P61073 1-352) | binds | – | – |
| C-X-C chemokine receptor type 4, mouse brain (from UniProt P70658 1-359) | – | binds | – |
| T-cell co-receptor cluster of differentiation 4, mouse brain (from UniProt P06332 27-457) | – | binds | – |
| Toll-like receptor 2, human brain (from UniProt O60603 21-784) | – | – | binding [3]: binds |
